Assay results published in US4087390A, “Somatostatin analogs and intermediates thereto” (Eli Lilly and Company, priority 1977, dated 1978).
Not every detail of the peptide structures is certain; ends, links or a residue may be inferred.

Experiments:
[1] = system: glucagon and insulin secretion; experiment: in vivo inhibition of glucagon and insulin secretion upon stimulation with L-alanine; set-up: species or system mongrel dogs; conditions: intravenous infusion
Description: D-Val^2, D-Trp^8 -somatostatin was tested for its in vivo activity in inhibiting glucagon and insulin secretion upon stimulation with L-alanine. Normal mongrel dogs of either sex were fasted overnight. Control blood samples were obtained, and then an intravenous infusion of saline, somatostatin, or D-Val^2, D-Trp^8 -somatostatin was started. After 30 minutes, L-alanine additionally was administered intravenously for a period of 15 minutes. The infusion of saline, somatostatin, or D-Val^2 D-Trp^8 -somatostatin was continued for 15 minutes after completion of the L-alanine infusion. The infusion of L-alanine caused an abrupt increase in serum concentration of glucagon and insulin which returned to control concentration upon termination of the L-alanine infusion. From the above it was determined that the minimal effective concentration of D-Val^2, D-Trp^8 -somatostatin is about 194 nanograms/kg./min. whereas the minimal effective concentration of somatostatin is 100-200 nanograms/kg./min.

growth hormone secretion = experiment: release of growth hormone in sodium pentobarbital-stimulated rats; format: in vivo, Spraque-Dawley rats; conditions: subcutaneously, serum growth hormone 20 minutes after administration
Description: D-Val^2, D-Trp^8 -somatostatin also was tested for its activity with respect to the release of growth hormone. The procedure which was employed is carried out using normal male Spraque-Dawley rats weighing 100-120 grams (Laboratory Supply Company, Indianapolis, Indiana). The test is a modification of the method of P. Brazeau, W. Vale, and R. Guilleman, Endocrinology, 94, 184 (1974). In this assay, five groups of eight rats each were employed. Sodium pentobarbital was administered intraperitoneally to all of the rats to stimulate growth hormone secretion. One group served as the control and received only saline. Two of the groups received somatostatin, one at 2 μg./rat, subcutaneously, and the other at 50 μg./rat, subcutaneously. The other two groups received D-Val^2, D-Trp^8 -somatostatin, one at 2 μg./rat, subcutaneously, and the other at 50 μg./rat, subcutaneously. The serum concentration of growth hormone was measured 20 minutes after simultaneous administration of sodium pentobarbital and test compound. The degree of inhibition of serum growth hormone concentration then was determined with respect to the control group, and the relative activities of D-Val^2, D-Trp^8 -somatostatin and somatostatin itself were compared. […]

glucagon secretion = experiment: in vivo inhibition of glucagon secretion upon stimulation with insulin; set-up: species or system mongrel dogs; conditions: intravenous infusion for two hours, 0.07-0.13 μg/kg/min.; insulin 0.3 units/kg.
Description: D-Val^2, D-Trp^8 -somatostatin also was evaluated for in vivo activity in inhibiting glucagon secretion upon stimulation with insulin. Normal mongrel dogs of either sex were fasted overnight. After control blood samples had been obtained, an intravenous infusion of saline, somatostatin, or D-Val^2, D-Trp^8 -somatostatin was commenced. After 15 minutes, insulin, 0.3 units/kg., was injected intravenously. The infusion of saline, somatostatin, or the test compound was continued for two hours, and blood samples were obtained at various intervals throughout the test. The total dose of the somatostatin or test compound ranged from 120-260 μg./dog (0.07-0.13 μg/kg/min.). Administration of insulin produced a reduction in the blood glucose concentration of an increase in serum glucagon concentration.

C[C@H](N)C(=O)NCC(=O)N[C@H]1CSSC[C@@H](C(=O)O)NC(=O)[C@H](CO)NC(=O)[C@H]([C@@H](C)O)NC(=O)[C@H](Cc2ccccc2)NC(=O)[C@H]([C@@H](C)O)NC(=O)[C@H](CCCCN)NC(=O)[C@H](Cc2c[nH]c3ccccc23)NC(=O)[C@H](Cc2ccccc2)NC(=O)[C@H](Cc2ccccc2)NC(=O)[C@H](CC(N)=O)NC(=O)[C@H](CCCCN)NC1=O [somatostatin, Somatostatin]
minimal effective concentration (inhibition of glucagon and insulin secretion) [1]: 100-200 nanograms/kg./min. | inhibition of the increase in growth hormone secretion over control (growth hormone secretion; 2 μg./rat): no effect | inhibition of the increase in growth hormone secretion over control (growth hormone secretion; 50 μg./rat): 64% | effect on the increase in serum glucagon concentration produced by insulin (glucagon secretion): blocked the increase in serum glucagon concentration | effect on the reduction of the blood glucose concentration produced by insulin (glucagon secretion): no affect
